From the supplement of paper PMC12823440, “Inhibitors supercharge kinase turnover through native proteolytic circuits” (Nature, 2025)
Some of the results follow. Hit calls seldom repeat between salt and free forms of one compound.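 Kinases were expressed as nanoluciferase fusions in K562 cells and luminescence was read every 4 h between 2 and 18 h as percent of control, DMSO set to 100% and a positive control to 0%. A time point counts as decreased when the signal drops significantly (2 sigma). The hit call is the authors' own, does not follow from the count of time points alone, and its rule is not shown.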

Molecular target: HER2 (UniProt P04626)
Experiment: kinase-Nluc reporter destabilization hit call (1 = scored as downregulated) (binary); higher = compound decreases kinase abundance
Conditions: K562; 2-18 h

kinase-Nluc reporter destabilization hit call, inactive:
CC(C)Cn1ncc2cc(Oc3ccc(F)cc3F)c(C(=O)NCCN(C)C)cc21 [p38α inhibitor 1] (10 µM) 0
CNc1cc2c(Nc3cccc(Br)c3)ncnc2cn1 (10 µM) 0
CN1C(=O)[C@@H](NC(=O)c2cc(Cc3ccccc3)on2)COc2ccccc21 (10 µM) 0
CC(C1CC1)n1cnc2c(NCc3cccc(C(F)(F)F)c3)nc(NCCN(C)C)nc21 (stereo not drawn) (10 µM) 0
Cc1n[nH]c2ncc(C(=O)N3CCC[C@H]3c3ccc(Cl)cc3)cc12 (10 µM) 0
COc1ccc(Br)c(C=O)c1O [6-Bromo-2-hydroxy-3-methoxybenzaldehyde] (10 µM) 0
Oc1ccc(-c2cnc3ccc(NCc4ccco4)nn23)cc1 [IRAK inhibitor 2] (2.5 µM) 0
C[C@H](Nc1cc2c(-c3ccc4c(c3)OCO4)noc2cn1)c1ccccc1 (10 µM) 0
Nc1ccc(C(=O)Nc2cccc(-c3nc(N4CCOCC4)c4oc5ncccc5c4n3)c2)cn1 (10 µM) 0
CCOC(=O)c1c(N2CCc3ccc(OC)cc3C2)oc(C=C2C=Nc3ncccc32)c1O (10 µM) 0
Cc1ncc(-c2cc(F)c(O)c(F)c2)cc1-c1cc(F)c(O)c(F)c1 (10 µM) 0
N=C(NC(=N)N1CCCC1)Nc1ccc(OC(F)(F)F)cc1 (10 µM) 0
CC1(C)CN(C(=O)c2ccc(-c3cccc4nc(NC(=O)C5CC5)nn34)cc2)C1 [Solcitinib] (10 µM) 0
COc1c(O)cc(O)c2c(=O)cc(-c3ccccc3)oc12 [Wogonin] (10 µM) 0
O=C(NC[C@H](O)CO)c1ccncc1Nc1ccc(I)cc1F [Pimasertib] (10 µM) 0
N#Cc1cnc(Nc2cc(NC[C@H]3CNCCO3)c(C(F)(F)F)cn2)cn1 (10 µM) 0
CCNC(=O)Nc1ccc(-c2nc3c(c(N4CCOC[C@@H]4C)n2)CCN(C2COC2)C3)cc1 (2.5 µM) 0
COc1cc2ncnc(Nc3cc(Br)c(O)c(Br)c3)c2cc1OC (2.5 µM) 0
Nc1ccc(-c2nc3ccc(-c4nc5ccc(N)cc5[nH]4)cc3[nH]2)cc1 (10 µM) 0
CCCCC(=O)OCC(=O)[C@]1(O)Cc2c(O)c3c(c(O)c2[C@@H](O[C@H]2C[C@H](NC(=O)C(F)(F)F)[C@H](O)[C@H](C)O2)C1)C(=O)c1c(OC)cccc1C3=O [Valrubicin] (10 µM) 0
CCOC(=O)c1c(Nc2ccccc2Cl)oc(/C=C2\C=Nc3ncccc32)c1O (10 µM) 0
Nc1[nH]nc2nnc(-c3c(-c4ccccc4)nn4ccccc34)cc12 (10 µM) 0
COc1cc2nc(NC3CC3)nc(NC3CCN(C(C)C)CC3)c2cc1OC (10 µM) 0
S=C(NCc1ccc2c(c1)OCO2)N1CCN(c2ncnc3c2oc2ccccc23)CC1 [Amuvatinib] (2.5 µM) 0
CC(=O)O[C@@H]1[C@@H](OC(C)=O)[C@@H](O)[C@H](Oc2c(-c3ccc(O)cc3)oc3cc(O)cc(O)c3c2=O)O[C@H]1C (10 µM) 0
CC1=CC(=O)C(C(C)C)=C/C1=N/OC(=O)c1ccccc1C [Poloxin] (2.5 µM) 0
CO[C@@H]1[C@H](N(C)C(=O)c2ccccc2)C[C@H]2O[C@]1(C)n1c3ccccc3c3c4c(c5c6ccccc6n2c5c31)C(=O)NC4 [Midostaurin] (2.5 µM) 0
Fc1ccc(Cl)cc1-c1nc(Nc2ccncc2)c2nccnc2n1 (10 µM) 0
CN1CCC(Nc2ccc(C(=O)Nc3cc(-c4ccc5c(c4)OCO5)[nH]n3)cc2)CC1 (10 µM) 0
CN1CCC(Nc2nc(Nc3ccc(Oc4ccccc4)cc3)c3c(=O)[nH]cc(Br)c3n2)CC1 (2.5 µM) 0
O=C(COc1ccc(Cl)cc1)NC1CCC(NC(=O)COc2ccc(Cl)cc2)CC1 (stereo not drawn) [ISRIB (trans-isomer)] (10 µM) 0
Cc1ccc(C2CC(=O)NC(SCC(=O)Nc3nccs3)=C2C#N)cc1 (stereo not drawn) [Necrostatin-34] (10 µM) 0
CCCCNc1ncc(C(=O)NCc2ccc(-n3ccnc3)cc2)c(NC2CCC(O)CC2)n1 (stereo not drawn) (10 µM) 0

Random excerpt: 2 entries already listed
kinase-Nluc reporter destabilization hit call, inactive:
N=C(NC(=N)N1CCCC1)Nc1ccc(OC(F)(F)F)cc1 (10 µM) 0
CC(=O)O[C@@H]1[C@@H](OC(C)=O)[C@@H](O)[C@H](Oc2c(-c3ccc(O)cc3)oc3cc(O)cc(O)c3c2=O)O[C@H]1C (10 µM) 0
